Results are given in words; binding and its absence hold for the method and conditions named. In cells and extracts the contact can be indirect. Binding calls can cover weak binding; strength is not graded here.
Target: Hap5-TAP (C. albicans)
Assay: co-IP; 5 mg C. albicans whole-cell extract (Winston buffer: 40 mM HEPES-NaOH pH 7.5, 350 mM NaCl, 10% glycerol, 0.1% Tween 20); TAP-tagged subunit captured on IgG-Sepharose for 4 h at 4 °C and eluted with AcTEV protease; blot probed with anti-FLAG; cells grown in -Fe (BPS) or +Fe (BPS plus FAS); WT, hap2Δ/Δ or hap3Δ/Δ (+Fe) backgrounds

Amino acid sequences for entries named in this document (tags omitted).
UniProt A0A1D8PLA9: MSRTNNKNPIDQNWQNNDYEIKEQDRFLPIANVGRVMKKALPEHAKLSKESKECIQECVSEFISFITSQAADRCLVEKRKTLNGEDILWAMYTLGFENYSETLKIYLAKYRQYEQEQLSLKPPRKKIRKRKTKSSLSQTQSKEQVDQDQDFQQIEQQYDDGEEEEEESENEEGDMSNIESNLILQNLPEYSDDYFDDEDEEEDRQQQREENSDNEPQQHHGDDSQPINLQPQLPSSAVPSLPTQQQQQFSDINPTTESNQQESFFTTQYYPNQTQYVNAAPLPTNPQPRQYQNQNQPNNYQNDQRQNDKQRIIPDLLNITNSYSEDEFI

“Hap3-FLAG (from UniProt A0A1D8PLA9 1-329)” was tested, and the binding was “binds”.

Source: paper PMC8217685
